Results are given in words; binding and its absence hold for the method and conditions named. In cells and extracts the contact can be indirect. Some entries that bind do so weakly or less than the wild type. Sequences can lack the tags named with a protein.

Amino acid sequences for entries named in this document (tags omitted). Residues count along the entry.
UniProt P63165, residues 1-97: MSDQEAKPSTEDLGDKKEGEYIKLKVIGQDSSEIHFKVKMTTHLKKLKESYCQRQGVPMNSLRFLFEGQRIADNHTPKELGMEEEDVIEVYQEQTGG

Binding data for one substance are collected here from publication PMC4496222.

In the test the target is T1, Flag-Gab1 (wild type), transiently expressed in 293T cells (UniProt Q13480).
T1 sequence: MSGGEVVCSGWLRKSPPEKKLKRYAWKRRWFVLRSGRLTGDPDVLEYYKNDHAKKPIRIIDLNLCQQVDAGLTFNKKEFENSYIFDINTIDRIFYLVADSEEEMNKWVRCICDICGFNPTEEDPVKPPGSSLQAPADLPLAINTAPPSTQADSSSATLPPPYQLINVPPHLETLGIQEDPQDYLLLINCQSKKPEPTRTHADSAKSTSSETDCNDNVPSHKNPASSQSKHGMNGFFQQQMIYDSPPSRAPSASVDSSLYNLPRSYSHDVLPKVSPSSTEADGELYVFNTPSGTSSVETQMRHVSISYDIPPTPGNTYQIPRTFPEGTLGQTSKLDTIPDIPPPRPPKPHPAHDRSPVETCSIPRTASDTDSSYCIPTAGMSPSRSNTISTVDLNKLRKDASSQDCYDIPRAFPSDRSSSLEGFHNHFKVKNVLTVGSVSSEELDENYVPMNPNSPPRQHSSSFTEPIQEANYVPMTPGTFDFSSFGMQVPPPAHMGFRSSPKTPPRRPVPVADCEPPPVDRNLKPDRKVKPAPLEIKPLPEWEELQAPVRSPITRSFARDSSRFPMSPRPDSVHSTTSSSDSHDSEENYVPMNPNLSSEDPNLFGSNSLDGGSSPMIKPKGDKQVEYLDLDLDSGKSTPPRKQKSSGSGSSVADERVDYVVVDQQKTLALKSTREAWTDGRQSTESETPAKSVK
Kind of test: co-IP; 293T cells co-transfected with His-SUMO1 and Flag-Gab1 WT or SIM1/2mut; IP with anti-Flag, blot with anti-His.

Turning to “His-SUMO1, expressed in 293T cells (from UniProt P63165 1-97)”, the binding result was “binds”.
